In the supplement of paper PMC4807443:
Where a name gives a salt, the structure may show the parent alone. The list shows a part of the results. The numbers are fractions of the control, whatever unit the source prints. Most entries show no effect beyond the scatter of the controls.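 A lentiviral reporter stably expressed in MIN6 mouse insulinoma beta cells uses Pdx1 and Ins1 promoters to drive separate nucleus-targeted fluorescent proteins; automated imaging with Hoechst nuclear stain counted cells. Possible hits were drugs shifting Ins1 promoter signal more than two median absolute deviations from DMSO controls, with Pdx1 activity roughly normal.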

System: MIN6
Test: % Pdx1+ Ins1+ (double-positive, mature) cells relative to DMSO control (fold of DMSO control); higher = more mature Ins1 promoter-active cells
Details: 8.5 µM; 48 h; glucose 5 mM

| SMILES | % Pdx1+ Ins1+ |
| --- | --- |
| CO[C@H]1/C=C/O[C@@]2(C)Oc3c(C)c(O)c4c(c3C2=O)C2=NC3(CCN(CC(C)C)CC3)NC2=C(NC(=O)/C(C)=C\C=C\[C@H](C)[C@H](O)[C@@H](C)[C@@H](O)[C@@H](C)[C@H](OC(C)=O)[C@@H]1C)C4=O [Rifabutin] | 0.926 |
| O=C(Cn1ccnc1[N+](=O)[O-])NCCO [Etanidazole] | 0.833 |
| COc1c(O[C@@H]2O[C@H](CO)[C@@H](O)[C@H](O)[C@H]2O)cc2c(c1OC)-c1ccc(SC)c(=O)cc1[C@@H](NC(C)=O)CC2 [Thiocolchicoside] | 0.937 |
| CN(C)CCN(Cc1cccs1)c1ccccn1 [Methapyrilene hydrochloride] | 0.9 |
| NC(=O)N1c2ccccc2C=Cc2ccccc21 [Carbamazepine] | 1.22 |
| Clc1ccc(C(Cn2ccnc2)OCc2c(Cl)cccc2Cl)c(Cl)c1 (stereo unspecified) [Isoconazole] | 1.15 |
| CC(=O)c1ccc(S(=O)(=O)NC(=O)NC2CCCCC2)cc1 [Acetohexamide] | 1.06 |
| CCCCC[C@H](O)/C=C/[C@@H]1[C@@H](C/C=C\CCCC(=O)O)[C@@H](O)C[C@H]1O [Dinoprost trometamol] | 0.852 |
| COc1ccc(CN(CCN(C)C)c2ccccn2)cc1 [Pyrilamine maleate] | 1.05 |
| CCCNC(C)C(=O)Nc1ccccc1C (stereo unspecified) [Prilocaine hydrochloride] | 1.14 |
| CC(COc1ccccc1)N(CCCl)Cc1ccccc1 (stereo unspecified) [Phenoxybenzamine hydrochloride] | 0.974 |
| Cc1cc(=O)oc2cc(O)ccc12 [Hymecromone] | 0.88 |
| CCOC(=O)c1ccc(OC(=O)CCCCCNC(=N)N)cc1 [Gabexate mesilate] | 0.985 |
| c1ccc(C2CN3CCSC3=N2)cc1 (stereo unspecified) [Tetramisole hydrochloride] | 0.909 |
| C=C1c2cccc(O)c2C(=O)C2=C(O)[C@]3(O)C(=O)C(C(N)=O)=C(O)[C@@H](N(C)C)[C@@H]3[C@@H](O)[C@H]12 [Methacycline hydrochloride] | 0.979 |
| COc1cc2cc3c4cc(OC)c(OC)cc4cc[n+]3c(C)c2cc1OC [Coralyne chloride hydrate] | 0.894 |
| Cn1c(=O)c2nc[nH]c2n(C)c1=O [Theophylline monohydrate] | 1.07 |
| Cc1scc2c1N(C(=O)CN1CCN(C)CC1)c1ccccc1NC2=O [Telenzepine dihydrochloride] | 1.09 |
| CC(C)(C)NC[C@H](O)COc1nsnc1N1CCOCC1 [Timolol maleate salt] | 0.989 |
| NCCCC[C@H](N[C@@H](CCc1ccccc1)C(=O)O)C(=O)N1CCC[C@H]1C(=O)O [Lisinopril] | 1.13 |
| CCOC(=O)OC(C)OC(=O)[C@@H]1N2C(=O)[C@@H](NC(=O)[C@H](N)c3ccccc3)[C@H]2SC1(C)C (stereo partly specified) [Bacampicillin hydrochloride] | 1.06 |

Quoted from above (two entries):

| SMILES | % Pdx1+ Ins1+ |
| --- | --- |
| NCCCC[C@H](N[C@@H](CCc1ccccc1)C(=O)O)C(=O)N1CCC[C@H]1C(=O)O [Lisinopril] | 1.13 |
| CCOC(=O)OC(C)OC(=O)[C@@H]1N2C(=O)[C@@H](NC(=O)[C@H](N)c3ccccc3)[C@H]2SC1(C)C (stereo partly specified) [Bacampicillin hydrochloride] | 1.06 |
